{"source": "PubChem BioAssay AID304", "about": "(DTP/NCI, 2004)", "tested_on": "Lymphosarcoma Mecca ip in C3AKF1 mice, survival T/C%", "experiment": "NCI In Vivo Anticancer Drug Screen. Data for tumor model Lymphosarcoma Mecca (intraperitoneal) in C3AKF1 (CHKRF1) mice", "settings": "T/C endpoint: survival time, mean or median, schedule: Q01DX010 (ip), vehicle: saline, higher T/C = longer survival", "description": "The antitumor activity of compounds was measured in mice bearing transplantable tumors. Survival or tumor size were measured and the results are expressed as the measurement made in the treated group (T) divided by the measurement made in the vehicle treated control group (C). The tumor model used in this assay is Lymphosarcoma Mecca (intraperitoneal) in C3AKF1 (CHKRF1) mice", "note": "The list is a part of this screen's results and no random one: its compounds were picked by chemical class. Not every dose and run of a compound is shown. T/C: endpoint of the treated group in % of that of the vehicle group. For survival time, the PubChem record calls one and a half times the control and up active, and a quarter to a half above the control has no call in these data; cut-offs in other NCI protocols can differ. Some entries show no survivor count and are marked so; the dose need not have been tolerated. Schedule codes are those of the source, read here as Q, the interval in days (D) or hours (H), X, the number of doses. Some entries hold several experiments; the values are given in rising order."}
{"smiles": "CN(CCCl)CCCl", "values": [{"measurement": "T/C", "setting": "dose: 0.06 mg/kg/injection", "value": "122 [survivor count not shown] and 270 % of control [survivor count not shown]"}, {"measurement": "T/C", "setting": "dose: 0.13 mg/kg/injection", "value": "113 [survivor count not shown], 125 [survivor count not shown], 145 [survivor count not shown], 150 % of control [survivor count not shown]"}, {"measurement": "T/C", "setting": "dose: 0.25 mg/kg/injection", "value": "125 [survivor count not shown], 143 [survivor count not shown], 154 [survivor count not shown], 195 % of control [survivor count not shown]"}, {"measurement": "T/C", "setting": "dose: 0.5 mg/kg/injection", "value": "148 [survivor count not shown], 193 [survivor count not shown], 240 [survivor count not shown], 390 % of control [survivor count not shown]"}, {"measurement": "T/C", "setting": "dose: 1.0 mg/kg/injection", "value": "86 [survivor count not shown] and 109 % of control [survivor count not shown]"}]}
